Values of other authors, collected in US20230245743A1, “Method Of Identifying A Drug For Patient-Specific Treatment” (Queen Mary University of London, priority 2020, published 2023).
At least one compound was matched to its structure with a doubt left.

How the values were obtained:
GDM-1 = settings: AML cell line GDM-1
OCI-M1 = settings: AML cell line OCI-M1
P31-FUJ = settings: AML cell line P31-FUJ

CCN(CCCOc1ccc2c(Nc3cc(CC(=O)Nc4cccc(F)c4)n[nH]3)ncnc2c1)CCOP(=O)(O)O [barasertib]
response of cells to the drug (AAC-based, median AAC cutoff) (GDM-1): intermediate response | response of cells to the drug (AAC-based, median AAC cutoff) (OCI-M1): resistant | response of cells to the drug (AAC-based, median AAC cutoff) (P31-FUJ): sensitive
